Columns and labels:
C. albicans ATCC 10231 [1] = assay: NCCLS broth microdilution MIC and MFC (Example 10); assay type: cell-based; conditions: Candida albicans, ATCC10231
E. coli ATCC 11229 = assay: NCCLS broth microdilution MIC and MBC (Example 10); assay type: cell-based, Escherichia coli
[2] = tested on: Candida albicans (ATCC 10231); assay: Time-Kill test (Example 9); assay type: cell-based; conditions: Table 25, second value column
S. aureus ATCC 25923 = assay: NCCLS broth microdilution MIC and MBC (Example 10); assay type: cell-based, Staphylococcus aureus
P. aeruginosa ATCC 15442 = assay: NCCLS broth microdilution MIC and MBC (Example 10); assay type: cell-based, Pseudomonas aeruginosa
[3] = tested on: S. epidermidis ATCC 12228; assay: NCCLS broth microdilution MIC and MBC (Example 10); assay type: cell-based, Staphylococcus epidermidis
T. rubrum ATCC 28188 [4] = assay: NCCLS broth microdilution MIC and MFC (Example 10); assay type: cell-based; conditions: Trichophyton rubrum, ATCC28188
T. rubrum ATCC 28188 [5] = assay: NCCLS broth microdilution MIC and MFC (Example 11); assay type: cell-based; conditions: Trichophyton rubrum, ATCC28188
S. pyogenes ATCC 19615 = assay: NCCLS broth microdilution MIC and MBC (Example 10); assay type: cell-based, Streptococcus pyogenes
C. albicans ATCC 10231 [6] = assay: NCCLS broth microdilution MIC and MFC (Example 11); assay type: cell-based; conditions: Candida albicans, ATCC10231
[7] = Example 10, % as g/100 ml or ml/100 ml

With `CCCCCCCCCCCCCCCC[n+]1ccccc1` [CPC, Cetyl Pyridinium Chloride] the MIC (C. albicans ATCC 10231 [1]) was at most 7 µg/mL, the MIC (E. coli ATCC 11229; Escherichia coli, ATCC11229) was 50 µg/mL and the “MIC (μg/ml)” value (E. coli ATCC 11229; Example 10) was “(50) μg/ml”. For the same compound, the “MIC, %” value (E. coli ATCC 11229; [7]) was 0.005%, the “Kill, 30-Second” value [2] was 100% and the “MIC (μg/ml)” value (S. aureus ATCC 25923; Example 10) was “(<=7) μg/ml”. For the same compound, the “MIC, %” value (S. aureus ATCC 25923; [7]) was “<=0.0007%”, the MIC (S. aureus ATCC 25923; Staphylococcus aureus, ATCC25923) was at most 7 µg/mL and the “MIC (μg/ml)” value (P. aeruginosa ATCC 15442; Example 10) was “(200) μg/ml”. For the same compound, the “MIC, %” value (P. aeruginosa ATCC 15442; [7]) was 0.02%, the MIC (P. aeruginosa ATCC 15442; Pseudomonas aeruginosa, ATCC15442) was 200 µg/mL and the “MIC (μg/ml)” value ([3]; Example 10) was “(<=7) μg/ml”. For the same compound, the “MIC, %” value [3, 7] was “<=0.0007%”, the MIC ([3]; Staphylococcus epidermidis, ATCC12228) was at most 7 µg/mL and the MIC (T. rubrum ATCC 28188 [4]) was at most 7 µg/mL. For the same compound, the MIC (T. rubrum ATCC 28188 [5]) was at most 7 µg/mL, the “MIC (μg/ml)” value (S. pyogenes ATCC 19615; Example 10) was “(<=7) μg/ml” and the “MIC, %” value (S. pyogenes ATCC 19615; [7]) was “<=0.0007%”. For the same compound, the MIC (S. pyogenes ATCC 19615; Streptococcus pyogenes, ATCC19615) was at most 7 µg/mL, the MFC (C. albicans ATCC 10231 [6]) was at most 7 µg/mL and the MIC (C. albicans ATCC 10231 [6]) was at most 7 µg/mL.
